Assay results published in PMC9730227.
These are yes or no findings as the source states them, for the method shown. In cells and extracts the contact can be indirect. Some binding calls cover weakened binding; strength is not graded here.

The chains behind the UniProt entries cited, without tags or fusion partners.
UniProt Q9ULZ3: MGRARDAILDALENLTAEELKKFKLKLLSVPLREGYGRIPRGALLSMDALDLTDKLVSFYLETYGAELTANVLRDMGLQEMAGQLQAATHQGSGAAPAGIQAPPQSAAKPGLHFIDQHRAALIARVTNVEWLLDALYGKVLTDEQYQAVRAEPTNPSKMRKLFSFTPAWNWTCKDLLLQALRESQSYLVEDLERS
UniProt P29466: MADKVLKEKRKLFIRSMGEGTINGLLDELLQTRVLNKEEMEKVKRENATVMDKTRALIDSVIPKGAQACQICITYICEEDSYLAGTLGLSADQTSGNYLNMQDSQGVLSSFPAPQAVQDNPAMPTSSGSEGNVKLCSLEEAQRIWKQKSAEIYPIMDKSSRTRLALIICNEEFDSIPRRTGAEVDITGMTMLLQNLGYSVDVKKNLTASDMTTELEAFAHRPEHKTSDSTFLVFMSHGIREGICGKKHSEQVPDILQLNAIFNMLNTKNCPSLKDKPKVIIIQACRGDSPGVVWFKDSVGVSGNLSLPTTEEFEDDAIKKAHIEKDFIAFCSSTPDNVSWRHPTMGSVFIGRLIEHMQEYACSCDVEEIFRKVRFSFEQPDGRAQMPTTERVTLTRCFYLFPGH

T1: apoptosis-associated speck-like protein containing a caspase activation and recruitment domain (ASC), mouse, endogenous in bone marrow-derived macrophages (mouse (endogenous in BMDM)) (UniProt Q9EPB4)
T1 sequence: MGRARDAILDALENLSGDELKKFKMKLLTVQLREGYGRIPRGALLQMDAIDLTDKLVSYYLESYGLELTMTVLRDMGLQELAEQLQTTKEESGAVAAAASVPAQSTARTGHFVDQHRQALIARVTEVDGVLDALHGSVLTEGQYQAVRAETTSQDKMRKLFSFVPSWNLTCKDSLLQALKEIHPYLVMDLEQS


Legend:
[1] = target: apoptosis-associated speck-like protein containing a caspase activation and recruitment domain (ASC), human, endogenous in THP1 cells (human (endogenous in THP1)) (UniProt Q9ULZ3); test: co-IP; lysates of LPS-primed THP1 cells or BMDMs treated with the indicated concentrations of 8A for 1 h, then ATP for 15 min; endogenous proteins; precipitating antibody not told
[2] = target: T1, apoptosis-associated speck-like protein containing a caspase activation and recruitment domain (ASC), mouse, endogenous in bone marrow-derived macrophages (mouse (endogenous in BMDM)); test: as above

Molecule	binding [1]	binding [2]
caspase-1 (pro-CASP1), human, endogenous in THP1 cells (from UniProt P29466 1-404)	binds	–
caspase-1 (pro-CASP1), mouse, endogenous in bone marrow-derived macrophages (protein, UniProt P29452 1-402) MADKILRAKRKQFINSVSIGTINGLLDELLEKRVLNQEEMDKIKLANITAMDKARDLCDHVSKKGPQASQIFITYICNEDCYLAGILELQSAPSAETFVATEDSKGGHPSSSETKEEQNKEDGTFPGLTGTLKFCPLEKAQKLWKENPSEIYPIMNTTTRTRLALIICNTEFQHLSPRVGAQVDLREMKLLLEDLGYTVKVKENLTALEMVKEVKEFAACPEHKTSDSTFLVFMSHGIQEGICGTTYSNEVSDILKVDTIFQMMNTLKCPSLKDKPKVIIIQACRGEKQGVVLLKDSVRDSEEDFLTDAIFEDDGIKKAHIEKDFIAFCSSTPDNVSWRHPVRGSLFIESLIKHMKEYAWSCDLEDIFRKVRFSFEQPEFRLQMPTADRVTLTKRFYLFPGH	–	binds
